Assay results: patent US20250170120A1, “ALLOSTERIC STING MODULATORS AND METHODS OF USE” (THE BOARD OF REGENTS OF THE UNIVERSITY OF TEXAS SYSTEM, priority 2022, published 2025)
At least one compound was matched to its structure with a doubt left. Some entries repeat one wording, which the source may state once for all of them.

The chains behind the UniProt entries cited, without tags or fusion partners.
UniProt Q86WV6, whole entry R71H/G230A/H232R/R293Q: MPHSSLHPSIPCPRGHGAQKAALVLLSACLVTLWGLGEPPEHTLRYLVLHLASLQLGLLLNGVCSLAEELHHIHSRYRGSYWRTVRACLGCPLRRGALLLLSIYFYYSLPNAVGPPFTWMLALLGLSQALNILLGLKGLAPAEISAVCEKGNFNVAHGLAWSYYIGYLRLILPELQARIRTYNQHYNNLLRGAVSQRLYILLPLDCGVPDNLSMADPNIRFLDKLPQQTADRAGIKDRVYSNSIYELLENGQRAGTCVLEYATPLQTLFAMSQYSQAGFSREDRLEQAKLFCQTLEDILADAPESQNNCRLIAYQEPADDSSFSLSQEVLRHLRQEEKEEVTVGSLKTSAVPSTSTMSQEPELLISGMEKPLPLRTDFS

Biological target: T1, STING (Homo sapiens, UniProt Q86WV6, G230A/H232R/R293Q/R71H)
T1 construct: host or cells: THP-1 / THP1-Dual / THP1-Lucia ISG cells
Assay: STING pathway activity in THP1-Dual/THP-1 cells upon cGAMP or MSA-2 stimulation (luciferase/interferon readout)
Type: cell-based
Conditions: for Induction of interferon production in the presence of MSA2: THP-1 cells, 10 μM MSA2, increasing concentrations of compound
Excerpt: Methods of measuring STING activity and by extension, the activity of the compounds discussed herein, are known in the art. As an example, the STING pathway activity may be evaluated using reporter cell lines where a reporter gene (i.e., luciferase, GFP) is expressed under direct or indirect control of interferon response elements. For example, in an exemplary embodiment, the STING pathway can be measured using THP1-Dual™ cells (InvivoGen) which express the Lucia gene (a secreted luciferase reporter gene) under the control of an ISG54 minimal promoter in conjunction with five IFN-stimulated response elements. The STING pathway, when activated, stimulates interferon release which, in this model, will increase luciferase expression in a detectable manner. When inhibited, interferon release will be decreased, reducing luciferase expression in a detectable manner. The compounds can optionally be tested in the presence of external stimulation (i.e., using cGAMP, a natural agonist of STING, or MSA-2).
The STING pathway activity was evaluated in THP1-Dual™ cells (Invivogen). […] After incubating at 37° C. for 16 hours, the luciferase activity was measured by QUANTI-Luc™ (Invivogen).

Row | Structure (SMILES) | Induction of interferon production in the presence of MSA2 | Induction of interferon by MSA2 (FIG. 39G) (THP1 cells, varying compound concentration, two MSA2 doses tested)
1 | CC1C(=O)N(Cc2c(F)cccc2C(F)(F)F)c2cc(C(=O)NCc3c(F)cc(F)cc3F)ccc2[C@@H]1C (stereo partly drawn) [UT153, (4R)-1-(2-fluoro-6-(trifluoromethyl)benzyl)-3,4-dimethyl-2-oxo-N-(2,4,6-trifluorobenzyl)-1,2,3,4-tetrahydroquinoline-7-carboxamide] | inhibited in a dose dependent manner | –
2 | CC1C(=O)N(Cc2c(F)cc(F)cc2F)c2cc(C(=O)NCc3cc4ccccc4[nH]3)ccc2[C@@H]1C (stereo partly drawn) [UT156, (4R)-N-((1H-indol-2-yl)methyl)-3,4-dimethyl-2-oxo-1-(2,4,6-trifluorobenzyl)-1,2,3,4-tetrahydroquinoline-7-carboxamide] | inhibited in a dose dependent manner | reduced the induction of interferon by MSA2 in a dose-dependent manner at both of the MSA2 doses tested
3 | CC1C(=O)N(Cc2c(F)cccc2C(F)(F)F)c2cc(C(=O)NCc3cc4ccccc4[nH]3)ccc2[C@@H]1C (stereo partly drawn) [UT158, (4R)-N-((1H-indol-2-yl)methyl)-1-(2-fluoro-6-(trifluoromethyl)benzyl)-3,4-dimethyl-2-oxo-1,2,3,4-tetrahydroquinoline-7-carboxamide] | inhibited in a dose dependent manner | –
